Source: PubChem BioAssay AID493014 (National Center for Advancing Translational Sciences (NCATS), 2011)
The list shows a part of the results. The main result of the screen is listed elsewhere. These columns were measured beside it and carry no call. Most of these compounds were active or inconclusive in the main read-out, so they are no random draw. Potencies come from curve fits of mixed quality, noted in brackets.

Experiment: qHTS Assay to Find Inhibitors of Chronic Active B-Cell Receptor Signaling
Details: ABC-DLBCL IkBa-CBG/CBR reporter, luminescence ratio (green luciferase fused to IkBa over red control in TMD8 lymphoma cells), 4 h
Outline: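 TMD8 human ABC-DLBCL cells with doxycycline-inducible IκBα–green luciferase fusion and unfused red luciferase, in 0.5% FBS medium; compounds up to 46 uM, 4 h at 37C. Green/red luminescence ratio, filter-overlap corrected, fitted to concentration-response curves.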

[1] = measured here: CBR red luminescence, cell number
[2] = measured here: IkBa-CBG green luminescence

Row | Compound | AC50 [1] | AC50 [2]
1 | Cc1cc(=O)[nH]c2ccc(S(=O)(=O)Nc3ccccc3)cc12 | 35.5 µM [rising, single point] | –
2 | Cc1onc(-c2ccccc2)c1C(=O)OCC(=O)Nc1ccc(Cl)cc1 | 20.6 µM [falling, partial curve] | –
3 | Cc1ccc(S(=O)(=O)NN2C(=O)/C(=C/c3ccccn3)SC2=S)cc1 | – | 18.4 µM [rising, partial curve, poor fit]
4 | CCCCCCn1c(C)nc2c(c1=O)c1nc3ccccc3nc1n2/N=C/c1ccco1 | 29.1 µM [rising, single point] | –
5 | COC(=O)/C=C/C(=O)N1CCN(c2cccc(Cl)c2)CC1 | 16.4 µM [falling, partial curve, poor fit] | 32.6 µM [rising, partial curve, poor fit]
6 | CCCCN1C(=O)NC2NC(=O)NC21 (stereo not drawn) | 0.651 µM [rising, partial curve, poor fit] | –
7 | Cc1cc(C)n2cc(COc3ccc4ccccc4c3)nc2n1 | 29.1 µM [falling, single point] | –
8 | COc1ccccc1C(=O)NNC(=O)c1ccc(Cl)cc1 | 22.4 µM [falling, partial curve, poor fit] | –
9 | CC[C@]12c3[nH]c4ccc(Cl)cc4c3CCN1C(=O)[C@@H](CC(=O)NCCC1=CCCCC1)C[C@@H]2C(=O)N1CCN(C(=O)c2ccco2)CC1 | 16.4 µM [falling, partial curve] | –
10 | Cc1ccc(C(=O)c2c3ccc([N+](=O)[O-])cc3[n+]([O-])n2CCCC(N)=O)cc1 | 6.51 µM [rising, full curve, poor fit] | –
11 | CC(C)/C=C1\CC/C(=C\c2ccc(N(C)C)cc2)C1=O | 0.206 µM [rising, full curve] | –
12 | COC(=O)c1ccc(CSc2n[nH]c(-c3ccccc3)n2)o1 | 35.5 µM [falling, single point] | –
13 | CCc1cc(C(=O)Nc2nnc(C3CC3)s2)sc1C | 0.00517 µM [rising, full curve, poor fit] | –
14 | CCOC(=O)C1(Cc2ccc(Cl)cc2)CCN(CCCn2cccn2)CC1 | 11.2 µM [rising, partial curve] | –
15 | O=C(NNC1=C(C(=O)C(F)(F)F)CCC1)c1cccc(Cl)c1 | 9.2 µM [falling, partial curve, poor fit] | –
16 | Cc1ccc(OCC(=O)N/N=C/c2ccc([N+](=O)[O-])o2)cc1 | 20.6 µM [falling, single point] | –
17 | Cc1c(NC(=O)CSCc2ccccc2)cccc1C(=O)O | 12.6 µM [falling, partial curve] | –
18 | COc1cccc(CCC(=O)Nc2cc3c(cc2C(=O)O)OCCCO3)c1OC | 29.1 µM [falling, single point] | –
19 | Cc1ccc(N2C(=O)S/C(=C/c3cn(C)c4ccccc34)C2=O)cc1 | 0.631 µM [rising, full curve, poor fit] | –
20 | COc1cccc2[nH]c(C(=O)NC(C)c3ccccc3)cc12 (stereo not drawn) | 35.5 µM [falling, single point] | –
21 | Cc1cc(Cl)ccc1NC(=S)NC(C)(C)C | 0.112 µM [falling, full curve] | –

Row | Compound | AC50 [1] | AC50 [2]
22 | O=C1O/C(=C\c2ccccc2)c2ccccc21 | 8.2 µM [rising, partial curve, poor fit] | –
23 | CCN(CC(=O)Nc1c(F)cccc1F)C(=O)CNC(=O)c1ccco1 | 29.1 µM [rising, single point] | –
24 | COc1ccccc1C(=O)NNC(=O)c1cccc(Br)c1 | 10 µM [falling, partial curve] | –
25 | CCC(=O)Nc1cc2nn(-c3ccccc3)nc2cc1Cl | 0.146 µM [rising, full curve, poor fit] | –
26 | CCOC(=O)C1CCCN(CC(=O)Nc2c(C(=O)OC)[nH]c3ccc(Br)cc23)C1 (stereo not drawn) | 14.1 µM [falling, single point] | –
27 | N#Cc1nc(/C=C/c2ccccc2)oc1NCCCN1CCOCC1 | 0.0794 µM [falling, full curve, poor fit] | –
28 | Cc1nc(C(C)N(C)Cc2nc(-c3ccc4c(c3)OCO4)no2)c(C)s1 (stereo not drawn) | 6.31 µM [falling, partial curve, poor fit] | –
29 | CC1C(=O)NN=C1C(=O)N/N=C/c1ccco1 (stereo not drawn) | 22.4 µM [falling, partial curve, poor fit] | –
30 | N=c1n(Cc2ccc(Cl)cc2)c2ccccc2n1CC(O)COc1ccccc1 (stereo not drawn) | 11.2 µM [falling, single point] | –
31 | CCN1/C(=C2\OC(=S)N(C)C2=O)Sc2ccccc21 | 1 µM [rising, full curve, poor fit] | –
32 | CC(C)Cc1nnc(NC(=O)CCc2ccccc2)s1 | 0.355 µM [rising, full curve, poor fit] | –
33 | COc1cc(/C=N/NC(=O)c2cccc(NC(=O)c3ccccc3)c2)ccc1O | 0.562 µM [falling, full curve, poor fit] | –
34 | CCOc1ccc(NC2=NC(C(=O)NCc3ccccc3)CC(=O)N2)cc1 (stereo not drawn) | 5.62 µM [rising, single point] | –
35 | Cc1ccc(NC(=O)n2ncc3c(C)cccc32)cc1F | 11.2 µM [falling, partial curve] | –
36 | CCn1c(SCC(=O)N2CCC(C)CC2)nc2c(c1=O)SCC2 | 8.91 µM [falling, partial curve, poor fit] | –
37 | CC(C)c1cc(C(=O)N/N=C/C(Br)=C/c2ccccc2)n[nH]1 | 14.1 µM [rising, partial curve, poor fit] | 17.8 µM [falling, single point]
38 | COc1cc(SC)ccc1C(=O)Nc1ccc(Br)cn1 | 7.08 µM [falling, partial curve, poor fit] | –
39 | Fc1ccc2cnc(CCO[C@H]3CCCCO3)cc2c1 | 0.259 µM [rising, full curve, poor fit] | –
40 | CC(=O)Nc1ccc2nc(-c3ccncc3)[nH]c2c1 | 1.16 µM [falling, full curve] | –
41 | O=C(CN1CCN(c2ncccn2)CC1)N(Cc1ccccc1)c1ccc(F)cc1 | 29.1 µM [falling, partial curve, poor fit] | –

3 entries out of the list, arranged by length of the SMILES, low to high:
Row | Compound | AC50 [1] | AC50 [2]
29 | CC1C(=O)NN=C1C(=O)N/N=C/c1ccco1 (stereo not drawn) | 22.4 µM [falling, partial curve, poor fit] | –
36 | CCn1c(SCC(=O)N2CCC(C)CC2)nc2c(c1=O)SCC2 | 8.91 µM [falling, partial curve, poor fit] | –
23 | CCN(CC(=O)Nc1c(F)cccc1F)C(=O)CNC(=O)c1ccco1 | 29.1 µM [rising, single point] | –
